Data reported in paper PMC10400277.
No constants are given. Whether binding was seen depends on the method and setting. Some results given as binding are weak or reduced against the parent protein; the word gives no strength. Where a sequence is shown, tags or fusion partners need not be part of it.

Target: T1, N-terminus of MSL10 (amino acids 1-164), C-terminally His-tagged (Arabidopsis thaliana), Q9LYG9
T1 chain: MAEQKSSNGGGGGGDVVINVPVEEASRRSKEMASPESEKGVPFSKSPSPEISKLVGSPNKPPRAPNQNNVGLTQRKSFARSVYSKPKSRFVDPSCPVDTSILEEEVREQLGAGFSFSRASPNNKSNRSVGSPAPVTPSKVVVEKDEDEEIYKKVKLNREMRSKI
Assay: circular dichroism; far-UV CD of His-tagged MSL10^N alone with 10-40% PEG 400 (a separate aliquot for each percentage); 20 °C; 20 mM sodium phosphate pH 7.4; .1-.3 mg/mL protein; self-association inferred from flattening and shift of the spectrum; both purified
Conditions: remark: other sources report otherwise

B1: N-terminus of MSL10 (amino acids 1-164), C-terminally His-tagged, Q9LYG9 1-164 (domain or fragment)
chain: MAEQKSSNGGGGGGDVVINVPVEEASRRSKEMASPESEKGVPFSKSPSPEISKLVGSPNKPPRAPNQNNVGLTQRKSFARSVYSKPKSRFVDPSCPVDTSILEEEVREQLGAGFSFSRASPNNKSNRSVGSPAPVTPSKVVVEKDEDEEIYKKVKLNREMRSKI
B1 was tested, and the binding was “binds”.
